Experimental data: PubChem BioAssay AID2685 (National Center for Advancing Translational Sciences (NCATS), 2010)
Some of the results follow. Further columns of the screen follow, without active or inactive calls. The list favours compounds with an active or inconclusive main result. The note in brackets gives the kind of curve behind each potency; many fits are weak.

Test: qHTS Assay for Lipid Storage Modulators in Drosophila S3 Cells;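 as to cell number change: cells counted by Cell Tracker Red CMTPX staining in the red channel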
Conditions: BODIPY lipid droplet fluorescence, 18-24 h; for cell number change: measured here: cell count max response, cells fed with added oleic acid
Procedure, shortened: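 Drosophila S3 cells got compounds at several concentrations plus oleic acid (400 uM solution). Laser-scanning cytometry with 488 nm excitation read lipid droplets at 500-530 nm and cells at 575-640 nm. Percent activity was relative to 20 uM Triacsin C.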

[1] = measured here: lipid fluorescence (Fed channel) AC50, cells fed with added oleic acid
[2] = measured here: cell number channel AC50, cells fed with added oleic acid

Row | SMILES | cell number change | AC50 [1] | AC50 [2]
1 | CCOC(=O)Cn1nc(C)c(NC(=O)c2ccc(Br)o2)c1C | 34.3% | 29.1 µM [rising, single point] | –
2 | O=C(CCC(=O)c1ccc(Br)cc1)Nc1cccc(C(F)(F)F)c1 | -49% | 23.1 µM [falling, single point] | 23.1 µM [falling, single point]
3 | CC(C)Cn1nc(C(=O)Nc2cccc(S(=O)(=O)N3CCCC3)c2)c2ccccc2c1=O | 0.63% | 3.66 µM [rising, single point] | –
4 | CCCCn1c(SCC(=O)NC2CCS(=O)(=O)C2)nc2cc(S(N)(=O)=O)ccc21 (stereo unspecified) | 9.09% | – | –
5 | CCOC(=O)CC(NC(=O)c1ccco1)c1ccccc1Cl (stereo unspecified) | -20.3% | 32.6 µM [falling, single point] | –
6 | Cc1ccc(-n2nnc3c(SCC(=O)NCC4CCCO4)ncnc32)cc1 (stereo unspecified) | 32.8% | 0.58 µM [falling, single point] | 29.1 µM [rising, single point]
7 | Nc1nc(SCC(=O)Nc2ccccc2Sc2ccccc2)n[nH]1 | – | – | 0.231 µM [rising, full curve, poor fit]
8 | O=C(/C=C/c1ccc(F)cc1)Nc1cccc(S(=O)(=O)Nc2cccc(C(F)(F)F)c2)c1 | -30.8% | 29.1 µM [falling, single point] | 16.4 µM [falling, single point]
9 | C(=N\N1CCN(c2ccccn2)CC1)/C1=C(N2CCOCC2)C(=C/c2ccccc2)/CC1 | -25.9% | 6.51 µM [falling, full curve, poor fit] | –
10 | Cc1ccc(C)c(N2CCN(C(=S)Nc3ccc4nc(N5CCN(C)CC5)cc(C)c4c3)CC2)c1 | -31% | 3.66 µM [falling, full curve, poor fit] | 4.11 µM [falling, full curve]
11 | Cc1ccc(C[n+]2cccc(-c3ccccc3)c2)c(C)c1 | -0.201% | 18.4 µM [falling, single point] | –
12 | Cc1nnc(NC(=O)CSc2nc(C(C)C)nc3sc(C)c(C)c23)s1 | -5.75% | 32.6 µM [falling, single point] | –
13 | CC(C)C/C=C1\CCc2c([nH]c3ccccc23)C1=O | 5.04% | 29.1 µM [rising, single point] | –
14 | O=C(c1cccc(Cl)c1)N1CCN(CCCc2ccccc2)CC1 | -0.699% | 0.00461 µM [rising, full curve, poor fit] | –
15 | O=C(c1cc(-c2ccc(Cl)c(Cl)c2)on1)N1CCCC1 | -40.4% | – | 29.1 µM [falling, single point]
16 | CN(CC(=O)Nc1ccc(Cl)c(C(F)(F)F)c1)C(=O)CCNC(=O)c1ccco1 | 100% | – | 4.11 µM [rising, partial curve]
17 | O=[N+]([O-])/C=C/c1cn(Cc2ccccc2)c2ccccc12 | – | 29.1 µM [falling, single point] | –
18 | Cc1cc(C(=O)CSc2nc(N)cc(N)n2)c(C)n1-c1cccc(F)c1 | 2.04% | 2.31 µM [rising, single point] | –

2 records drawn at random from the list so far, as already listed:
Row | SMILES | cell number change | AC50 [1] | AC50 [2]
14 | O=C(c1cccc(Cl)c1)N1CCN(CCCc2ccccc2)CC1 | -0.699% | 0.00461 µM [rising, full curve, poor fit] | –
11 | Cc1ccc(C[n+]2cccc(-c3ccccc3)c2)c(C)c1 | -0.201% | 18.4 µM [falling, single point] | –

Additional entries follow:

Row | SMILES | cell number change | AC50 [1] | AC50 [2]
19 | N#Cc1c(NC(=O)c2ccc(Cn3cc(Br)cn3)o2)sc2c1CCCCCC2 | – | 29.1 µM [falling, partial curve] | –
20 | O=C1c2ccccc2C(=O)N1CCN1CCCCC1 | 10.7% | 23.1 µM [falling, single point] | –
21 | CNC(=O)c1c(NC(=O)c2ccc(S(=O)(=O)N3CCCCC3)cc2)sc2c1CCN(C(C)C)C2 | -40.1% | 6.51 µM [falling, single point] | 20.6 µM [falling, partial curve, poor fit]
22 | CCOc1ccc(OCC)c(NC(=O)CSc2nc3c(c(=O)n(C)c(=O)n3C)n2C)c1 | – | 0.259 µM [rising, full curve, poor fit] | –
23 | COc1ccc(C(=O)C2CCCN(Cc3c(F)ccc(F)c3F)C2)c(OC)c1 (stereo unspecified) | -34.4% | – | 9.2 µM [falling, partial curve, poor fit]
24 | CCOC(=O)Cn1nc(NC(=O)COc2ccc(F)cc2)cc1C | 6.35% | – | –
25 | CCc1ccc(NC(=O)COC(=O)CCc2nc3cc(S(=O)(=O)N(CC)CC)ccc3n2C)cc1 | 11.2% | 6.51 µM [rising, partial curve, poor fit] | –
26 | CC(=O)NC1C(OC(=O)/C=C/c2ccccc2)OC(COC(C)=O)C(OC(C)=O)C1OC(C)=O (stereo unspecified) | 4.72% | 6.51 µM [rising, single point] | –
27 | CC(C)CN(C(=O)c1ccc(C(F)(F)F)cc1)c1c(N)n(CC(C)C)c(=O)[nH]c1=O | 2.08% | – | –
28 | COCc1c(C(=O)N/N=C/c2ccncc2)nnn1-c1nonc1N | 13.9% | – | –
29 | COC(=O)c1ccccc1NC(=O)C1CCCN(S(=O)(=O)c2ccccc2)C1 (stereo unspecified) | -9.38% | 0.00461 µM [rising, full curve, poor fit] | –
30 | CCOC(=O)CN(C(=O)CSc1nnc2c(n1)[nH]c1ccccc12)c1ccccc1 | -92.9% | 5.8 µM [falling, full curve] | 2.91 µM [falling, full curve]
31 | Cc1nn2c(N3CCCC3)c3c(nc2c1-c1ccccc1)CCC3 | 11.8% | 6.51 µM [rising, single point] | –
32 | CCCCCn1c(CN2CC(C)OC(C)C2)nc2c1c(=O)n(C)c(=O)n2C (stereo unspecified) | 61.8% | 0.731 µM [rising, single point] | 29.1 µM [rising, single point]
33 | CCOc1cc(CNCC(C)C)cc(Cl)c1OCc1ccccc1 | 24.8% | 7.31 µM [rising, partial curve] | –
34 | Cc1cccc(Oc2ccc(NC(=O)C3=CC=CN4CCS(=O)(=O)N=C34)cc2)c1 | 26.8% | 0.0326 µM [rising, full curve, poor fit] | –
35 | Cc1ccc(Oc2ccccc2NC(=O)CSCC(=O)Nc2cc(C)on2)cc1 | 3.72% | 18.4 µM [falling, single point] | –
36 | CCC1(CC)NC(=O)N(CC(=O)OCC(=O)c2cc(C)c(C)cc2C)C1=O | 52.6% | – | 18.4 µM [rising, single point]
